From US20190194317A1 (FARON PHARMACEUTICALS, published 2019)
No constants are given. Whether binding was seen depends on the method and setting. Some entries that bind do so weakly or less than the wild type.

Target: T1, CLEVER-1 coated on the ELISA plate (competition ELISA, Examples 5 and 10) (human) (UniProt Q9NY15)
T1 sequence (looked up): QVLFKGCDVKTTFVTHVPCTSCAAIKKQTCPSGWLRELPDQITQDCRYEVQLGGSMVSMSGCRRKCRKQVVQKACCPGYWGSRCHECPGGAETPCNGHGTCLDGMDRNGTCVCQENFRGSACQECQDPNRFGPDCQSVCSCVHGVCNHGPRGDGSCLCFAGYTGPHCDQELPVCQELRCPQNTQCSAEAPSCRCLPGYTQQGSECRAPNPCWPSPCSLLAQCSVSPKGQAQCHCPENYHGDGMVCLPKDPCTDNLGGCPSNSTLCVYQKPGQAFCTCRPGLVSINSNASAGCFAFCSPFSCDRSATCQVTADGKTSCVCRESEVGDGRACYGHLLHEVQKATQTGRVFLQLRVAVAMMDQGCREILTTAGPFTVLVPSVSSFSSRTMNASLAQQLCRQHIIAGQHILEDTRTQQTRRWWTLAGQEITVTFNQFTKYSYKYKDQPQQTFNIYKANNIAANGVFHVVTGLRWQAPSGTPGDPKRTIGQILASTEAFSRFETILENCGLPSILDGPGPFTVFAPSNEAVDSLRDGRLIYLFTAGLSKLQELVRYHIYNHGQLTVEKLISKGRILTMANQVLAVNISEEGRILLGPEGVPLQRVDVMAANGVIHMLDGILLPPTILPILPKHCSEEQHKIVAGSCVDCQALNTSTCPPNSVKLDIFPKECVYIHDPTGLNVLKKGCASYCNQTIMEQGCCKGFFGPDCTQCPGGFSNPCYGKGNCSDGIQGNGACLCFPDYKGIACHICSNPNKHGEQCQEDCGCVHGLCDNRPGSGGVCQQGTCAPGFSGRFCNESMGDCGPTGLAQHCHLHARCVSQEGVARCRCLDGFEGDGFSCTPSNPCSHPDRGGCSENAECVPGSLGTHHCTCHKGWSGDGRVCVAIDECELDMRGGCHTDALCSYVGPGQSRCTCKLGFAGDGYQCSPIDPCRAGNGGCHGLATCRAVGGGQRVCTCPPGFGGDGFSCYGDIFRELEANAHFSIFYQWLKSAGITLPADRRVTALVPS
Assay: competition ELISA on coated CLEVER-1

B1: chimeric 3-372 IgG4 (antibody, V domains shown)
VH: QVTLKESGPGILQPSQTLSLTCSFSGFSLNTSGMGIGWIRQPSGKGLEWLAHIWWDDDKRYNPALKSRLTISKDTSSNQVFLKIASVDTADTATYYCARHYGYDPYYAMDYWGQGTSVTVSS
VL: QIVLTQSPAIMSASLGERVTMTCTASSSVSSSYLHWYQQRPGSSPKLCIYRTSNLASGVPPRFSGSGSGTSYSLTISSMEAEDAATYYCHQYHRSPPTFGGGTKLEIN
notes: Expressed in NSO cells; also called CH/CK; chimera
**Q.** With B1 as the binder, how does the binding read?
**A.** binds
